Values of other authors as cited in patent US12661316B2, “Creatine and/or creatinine compositions and related methods” (ThermoLife International, LLC, priority 2018, dated 2026).
At least one compound was matched to its structure with a doubt left.

Tested on: erythrocytes
Settings: cited from earlier work

For `CN1CC(=O)NC1=N` [creatinine], the “glucose utilization by erythrocytes” value is listed as “effectively inhibit”.
